# Data as given in PubChem BioAssay AID1671195 (Yale University, 2021).
# Test: 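Regulators of LDL receptor activity judged by labelled LDL uptake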 (primary screen)
# System: human Huh7 hepatoma cells
# Knock-down reagent: siRNA pool against human genes, 18 nM
# Duration: about 2 to 2.5 days of knockdown, then 8 h LDL uptake
# Treatment: DiI-labelled LDL at 30 µg/ml for 8 h, in lipoprotein-deficient serum medium
# Read-out: 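Fluorescent LDL signal imaged in cells, scaled to the plate median, robust z-score for each replicate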
# Scale: robust z-score: higher = more LDL uptake after knockdown
# Active means: 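Active when two or more replicates show a robust z-score above 2 or below -2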
# The whole screen tested about 22,000 reagents; below is a part drawn at random. In the full data, about 1,510 (6.9%) got an active call. 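Active includes knockdowns raising or lowering LDL uptake; positive z-scores mean more uptake, negative mean less.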
gene symbol,"robust z-score, replicate 1","robust z-score, replicate 2","robust z-score, replicate 3",Outcome
PYGM (GeneID 5837),1.58,1.94,1.98,inactive
LPAR5 (GeneID 57121),-0.47,-1.21,-1.16,inactive
AACSP1 (GeneID 729522),1.9,1.41,2.71,active
MEF2C (GeneID 4208),1.11,0.904,1.03,inactive
LINC01148 (GeneID 283585),-0.283,0.349,0.834,inactive
TMEM26 (GeneID 219623),-1.16,-0.984,-1.07,inactive
ZKSCAN1 (GeneID 7586),-0.678,0.492,-1.09,inactive
PNMA5 (GeneID 114824),0.311,-1.67,-0.868,inactive
TLE5 (GeneID 166),0.493,0.723,0.592,inactive
FAAP100 (GeneID 80233),0.335,0.486,0.299,inactive
AMER2 (GeneID 219287),-0.433,0.61,0.574,inactive
DEF6 (GeneID 50619),-0.813,-2.42,-0.48,inactive
TMPRSS11A (GeneID 339967),3.43,2.81,3.67,active
ARL13B (GeneID 200894),-0.348,0.0553,-0.515,inactive
LOC401126 (retired record) (GeneID 401126),-0.318,-0.0377,0.143,inactive
HS3ST3A1 (GeneID 9955),1.93,2.2,2.03,active
TMEM132A (GeneID 54972),-0.0183,0.728,-0.94,inactive
SPATA31D3 (GeneID 389762),0.87,1.18,0.862,inactive
FBXO2 (GeneID 26232),0.407,-1.08,-1.03,inactive
NT5C1A (GeneID 84618),-0.428,-0.0179,0.0483,inactive
TRPV4 (GeneID 59341),3.47,3.87,2.47,active
ELMOD2 (GeneID 255520),-1.09,-1.15,-0.887,inactive
SPACA3 (GeneID 124912),-0.0706,-0.177,-0.534,inactive
FAM228B (GeneID 375190),-1.13,-1.28,-1.15,inactive
EMD (GeneID 2010),-0.338,0.22,0.182,inactive
COPS7B (GeneID 64708),0.0186,-0.576,0.342,inactive
HAPLN3 (GeneID 145864),0.633,1.34,0.664,inactive
CLCN6 (GeneID 1185),1.19,0.338,1.59,inactive
PFKFB3 (GeneID 5209),-0.718,-0.167,-0.421,inactive
CDC42EP5 (GeneID 148170),1.01,1.25,0.79,inactive
STAC3 (GeneID 246329),-0.0277,-0.108,-0.0292,inactive
FRAT1 (GeneID 10023),0.0755,-1.59,-0.715,inactive
SLC5A3 (GeneID 6526),-1.07,-1.22,-1.41,inactive
LOC389172 (retired record) (GeneID 389172),2.39,1.62,0.91,inactive
DENND2C (GeneID 163259),1.14,1.02,1.63,inactive
PRPF40B (GeneID 25766),1.31,1.85,0.643,inactive
HCLS1 (GeneID 3059),-1.32,-1.5,-1.43,inactive
OR51L1 (GeneID 119682),0.543,0.082,0.41,inactive
GCOM1 (GeneID 145781),3.73,2.99,4.09,active
MED10 (GeneID 84246),-0.124,-0.507,-1.19,inactive
VTCN1 (GeneID 79679),0.507,0.622,0.242,inactive
TP53RK (GeneID 112858),0.501,1.58,0.302,inactive
CCDC188 (GeneID 388849),-0.0784,-0.455,0.332,inactive
AASDH (GeneID 132949),-0.114,-0.981,-0.384,inactive
LRRC63 (GeneID 220416),1.92,1.7,1.73,inactive
C10orf126 (GeneID 283080),1.41,0.433,0.394,inactive
TXNDC9 (GeneID 10190),0.612,-0.143,0.0897,inactive
RSAD1 (GeneID 55316),-0.243,-1.39,-0.56,inactive
E2F6 (GeneID 1876),4.44,4.24,1.68,active
SLMAP (GeneID 7871),1.68,2.14,-0.12,inactive
FARS2 (GeneID 10667),-0.718,-0.661,-0.859,inactive
IARS1 (GeneID 3376),0.212,0.198,0.323,inactive
MRPS24 (GeneID 64951),-1.48,-1.86,-1.72,inactive
ARHGDIA (GeneID 396),-0.449,-0.786,-0.987,inactive
METTL6 (GeneID 131965),-0.157,-0.794,-0.657,inactive
GABPA (GeneID 2551),1.45,0.663,0.553,inactive
WWC2 (GeneID 80014),-1.16,-0.976,-1.39,inactive
IL27 (GeneID 246778),-0.632,-0.53,-0.972,inactive
CCDC42 (GeneID 146849),-1.28,-0.7,-1.13,inactive
ADGRD1 (GeneID 283383),-2.6,-1.52,-1.68,active
CEP68 (GeneID 23177),-1.3,-0.0827,-2.48,inactive
RPL21 (GeneID 6144),-1.81,-2.01,-1.34,inactive
PEX11G (GeneID 92960),0.037,0.575,0.759,inactive
MTMR11 (GeneID 10903),-1.13,-0.315,-1.72,inactive
CIRBP-AS1 (GeneID 148046),-0.19,0.716,0.223,inactive
NSUN2 (GeneID 54888),0.651,-0.563,0.925,inactive
ZNF423 (GeneID 23090),-1.03,-1.17,-0.459,inactive
PTGIS (GeneID 5740),2.53,3.95,2.73,active
